One compound from patent publication US20250109127A1, “METHODS OF USE OF PHENOXYPROPYLAMINE COMPOUNDS TO TREAT DEPRESSION” (Minerva Neurosciences, Inc., priority 2013, published 2025) can be followed below.

Several values for one entry are separate records, joined by “and”; a condition that tells them apart may be missing. Identical values can stand only once. Counter-ions that a name gives are not always drawn. This continues a long series; more values of the same kind are listed elsewhere.

In assay [1] the test system is HVA release in the rat prefrontal cortex. The assay can be described thus: Microdialysis: HVA release in prefrontal cortex after I.P. administration. The format is in vivo. The following applies: hydrochloride; for HVA release, individual animals: 0.3 mg/kg I.P., one column per animal R#11,12,18,23,29,30,17,24; for HVA release (% of basal levels) measured in dialysates: SON-117 3 mg/kg IP, individual animals, 3 mg/kg. How it is done:
(§1) The aim of the study was to evaluate, using microdialysis, the effects of an intraperitoneal (I.P.) administration in rats of three different doses of SON-117 on dopamine and its metabolites, serotonin and its metabolite (5-HIAA), and norepinephrine levels in prefrontal cortex.
(§2) Thirty-two adult male Wistar rats were used for the whole study (4 groups of eight animals planned for the study, Table 1).
(§3) Surgery was performed on rats weighing about 300 g at the beginning of the experiments. Rats were anaesthetized with Ketamine (50 mg/kg) & Xylazine (15 mg/kg) by intramuscular administration. The animals were placed in a stereotaxic apparatus in the flat-skull position at a constant setting of −3.3 mm between ear bars and the incisor bar. The animals were treated with a local anesthesic (xylocaine 1%, Astra Zeneca) and an analgesic (Temgesic, from Schering Plough, 0.05 mg/kg, s.c.). A rostrocaudal midline incision was made with a lancet to expose the dorsal skull surface. The “stereotaxic zero” was defined by the Bregma in accordance with Paxinos and Watson's atlas (1986). A hole was drilled in the skull with a drill and the meninges were pierced with a sterile needle to implant a CMA12 guide cannula which later received the dialysis probe.
(§4) Coordinates used for implanting guide cannula in prefrontal cortex from Bregma were anteroposterior 3.7 mm, mediolateral 0.8 mm, and dorsoventral −2 mm (top of the probe was at −5 mm). The guide cannula was fixed to the skull with two stainless steel screws (1.88 mm outside diameter) anchored. An application of dental cement was added. A plastic collar allowed each animal to be tethered to a Swivel assembly of the CMA 120 awake animal system. Following surgery, rats were kept in individual cages and allowed to recover for a minimum of 3-5 days before the experimentation. The rats were handled and put in plastic bowl for 10 min at least every day to habituate the animals to their new environment for the dialysis. An I.P. administration with saline was also performed every day.
(§5) Dialysis probes (CMA12/3 mm, membrane, 20 kD cut-off, Carnegie Medicine, Stockholm, Sweden), were carefully washed before inserting into the guide cannula. The wash was performed with the artificial cerebrospinal fluid (aCSF) medium (NaCl 147 mM, KCl 2.7 mM, CaCl2 1.2 mM, MgCl2 0.85 mM) at room temperature. The dialysis system was then equilibrated at 20° C. at a perfusion rate of 1 μl/min with a Carnegie pump (CMA100). All catheters (FEP tubing, internal volume of 1.2 μl/10 cm, and tubing adaptors) used for microdialysis were treated in the same conditions.
(§6) The probes duly prepared were inserted into the guide cannula and the CMA120 Swivel assembly secured to the animal using a plastic collar. Flow through the dialysis probe with aCSF was maintained at a rate of 1 μl/min during the whole experimentation. The first four fractions (corresponding to 2 hours) were discarded to avoid the effects of parenchymal disturbance and to ensure that an approximate steady-state level was reached. Fractions were then collected over a period of 8.5 h during which time the animals remained quiet. The dialysates were automatically collected with an autosampler (microfraction collector CMA 140, Carnegie Medicin) and stored at −80° C. until analysis. […] Perfusion was then maintained for 7 hours with aCSF. The dialysates (30 μl) were collected into 300 μl vials, transferred into dry ice and then kept frozen (−80° C.) until analysis. Frozen samples were shipped to a partner for analysis. At the end of the microdialysis study, a PBS with colored ink was perfused through the probe in order to visualize the dialyzed area.
Catecholamine assay: Concentrations of dopamine, DOPAC, HVA, 5-HIAA, 5-HT, and norepinephrin were determined for each sample by HPLC coupled with electrochemical detection.

The subject of assay [2] is 5-HT release in the rat prefrontal cortex. Nature of the assay: Microdialysis: 5-HT release in prefrontal cortex after I.P. administration. In kind it is in vivo. The following applies: hydrochloride; for 5-HT (% of respective basal), individual animal: 0.1 mg/kg I.P., c2-c9 = R#13,14,20,19,25,26,31,32; for 5-HT release, individual animals: 0.3 mg/kg I.P., one column per animal R#11,12,18,23,29,30,17,24; for 5-HT release (% of basal levels) measured in dialysates: SON-117 3 mg/kg IP, individual animals, 3 mg/kg. As to the method:
as §1, §2, §3, §4, §5, §6
Catecholamine assay: Concentrations of dopamine, DOPAC, HVA, 5-HIAA, 5-HT, and norepinephrin were determined for each sample by HPLC coupled with electrochemical detection. […]

Where [3] appears, read: T-1 h 30-T-1 h (before administration).
Setting [4] is: T-1 h-T-30 min (before administration).
The mark [5] stands for this setting: T-30 min-T0 (pre-administration).
Where [6] appears, read: T-1 h 30-T-1 h (pre-administration).
The mark [7] stands for this setting: T-1 h-T-30 min (pre-administration).
Setting [8] is: T-30 min-T0 (before administration).

On to `Cc1nnc(-c2cc3c(OC[C@@H](O)CN4CCC(c5ccc(Cl)c(Cl)c5)CC4)cccc3o2)o1` [SON-117, (S)-1-(4-(3,4-dichlorophenyl)piperidino)-3-(2-(5-methyl-1,3,4-oxadiazol-2-yl)benzo(b)furan-4-yloxy)-2-propanol hydrochloride], for which the “HVA release, individual animals” value in assay [1] (setting [3]) was 109.98 % of respective basal and 103.62 % of respective basal and 100.80 % of respective basal and 105.27 % of respective basal and 100.33 % of respective basal and 94.99 % of respective basal and 43.32 % of respective basal and 103.83 % of respective basal; in assay [1] (setting [4]) it was 94.68 % of respective basal and 100.31 % of respective basal and 102.96 % of respective basal and 94.93 % of respective basal and 100.41 % of respective basal and 133.88 % of respective basal and 128.33 % of respective basal and 91.86 % of respective basal. Further, the “HVA release (% of basal levels) measured in dialysates” value in assay [1] (T0-T30 min) was 78.86 % of basal levels and 79.92 % of basal levels and 77.73 % of basal levels and 103.05 % of basal levels and 87.40 % of basal levels and 98.58 % of basal levels and 122.04 % of basal levels and 107.12 % of basal levels; in assay [1] (T6 h 30-T7 h), 86.52 % of basal levels and 109.35 % of basal levels and 138.98 % of basal levels; in assay [1] (setting [5]), 97.56 % of basal levels and 81.45 % of basal levels and 96.59 % of basal levels and 96.35 % of basal levels and 102.37 % of basal levels and 101.14 % of basal levels and 97.08 % of basal levels and 108.72 % of basal levels; in assay [1] (setting [6]), 100.28 % of basal levels and 104.53 % of basal levels and 106.79 % of basal levels and 95.37 % of basal levels and 95.07 % of basal levels and 104.70 % of basal levels and 98.85 % of basal levels and 88.50 % of basal levels; in assay [1] (setting [7]), 102.14 % of basal levels and 114.02 % of basal levels and 96.62 % of basal levels and 108.28 % of basal levels and 102.56 % of basal levels and 94.16 % of basal levels and 104.10 % of basal levels and 102.75 % of basal levels. Besides, the “5-HT (% of respective basal), individual animal” value in assay [2] (T0-T30 min) is 108.02 % of respective basal and 93.83 % of respective basal and 119.32 % of respective basal and 246.92 % of respective basal and 107.34 % of respective basal and 97.92 % of respective basal; in assay [2] (T6 h 30-T7 h), 97.91 % of respective basal and 541.29 % of respective basal and 114.61 % of respective basal and 244.32 % of respective basal; in assay [2] (setting [8]) it was 92.16 % of respective basal and 110.89 % of respective basal and 99.40 % of respective basal and 99.09 % of respective basal and 161.58 % of respective basal and 143.66 % of respective basal and 98.90 % of respective basal and 95.76 % of respective basal; in assay [2] (setting [3]), 108.25 % of respective basal and 86.31 % of respective basal and 94.30 % of respective basal and 103.54 % of respective basal and 24.35 % of respective basal and 38.46 % of respective basal and 95.89 % of respective basal and 93.96 % of respective basal; in assay [2] (setting [4]), 99.35 % of respective basal and 103.83 % of respective basal and 106.58 % of respective basal and 97.86 % of respective basal and 112.18 % of respective basal and 115.38 % of respective basal and 104.67 % of respective basal and 110.26 % of respective basal. Further, the “5-HT release, individual animals” value is 129.03 % of respective basal and 89.70 % of respective basal and 92.85 % of respective basal and 99.56 % of respective basal and 102.65 % of respective basal and 301.33 % of respective basal and 98.83 % of respective basal and 43.23 % of respective basal in assay [2] (T0-T30 min); 33.37 % of respective basal and 136.61 % of respective basal in assay [2] (T6 h 30-T7 h); 73.58 % of respective basal and 119.76 % of respective basal and 102.47 % of respective basal and 102.92 % of respective basal and 109.00 % of respective basal and 97.01 % of respective basal and 104.74 % of respective basal and 45.92 % of respective basal in assay [2] (setting [8]); 107.47 % of respective basal and 111.64 % of respective basal and 94.68 % of respective basal and 96.44 % of respective basal and 95.50 % of respective basal and 88.09 % of respective basal and 102.83 % of respective basal and 104.31 % of respective basal in assay [2] (setting [3]); 118.31 % of respective basal and 68.82 % of respective basal and 102.81 % of respective basal and 100.54 % of respective basal and 94.29 % of respective basal and 107.10 % of respective basal and 92.03 % of respective basal and 149.23 % of respective basal in assay [2] (setting [4]). Also, the “5-HT release (% of basal levels) measured in dialysates” value was 117.39 % of basal levels and 72.52 % of basal levels and 149.42 % of basal levels and 116.55 % of basal levels and 111.21 % of basal levels and 77.19 % of basal levels and 74.89 % of basal levels and 87.15 % of basal levels in assay [2] (T0-T30 min); 101.51 % of basal levels and 110.85 % of basal levels and 101.71 % of basal levels and 106.95 % of basal levels and 101.32 % of basal levels and 73.17 % of basal levels and 75.35 % of basal levels and 105.70 % of basal levels in assay [2] (setting [5]); 85.69 % of basal levels and 94.52 % of basal levels and 121.70 % of basal levels and 128.21 % of basal levels and 99.68 % of basal levels in assay [2] (setting [6]); 93.84 % of basal levels and 104.92 % of basal levels and 108.54 % of basal levels and 106.54 % of basal levels and 103.87 % of basal levels and 105.82 % of basal levels and 105.7 % of basal levels and 94.09 % of basal levels in assay [2] (setting [7]).
